## Percent effect of library compounds

From ChEMBL document CHEMBL3988442, “University of Dundee, Small-Polar-MMV Screening Library” (2021).

Each number is a percent effect as filed.
The record does not define 0% and 100%; most values in the screen are far below 50% and negative numbers occur (in some assays of this library far below -100).
The compounds are a random part of those screened.
Two or more numbers in one place are separate tests of the same structure; such repeats can differ widely.

Leishmania in macrophages: 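Cell assay of Leishmania donovani living inside macrophages; the read-out is not stated. Compounds at 30 µM. The record gives no direction; compounds that gave an IC50 in retests scored well above the rest, so higher reads as stronger inhibition. Size under these conditions: about 69,000 compounds, about 1,000 of them at 50% or above in at least one test.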
Toxoplasma: 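Assay of Toxoplasma gondii numbers, read through their beta-galactosidase reporter with a colour substrate. Compounds at 10 µM. Higher reads as fewer parasites (inferred from which compounds were picked for retests). Of about 67,000 compounds tested this way, about 260 (0.38%) reached 50% or more in at least one test.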

- N[C@@H](C(=O)N1CCN(c2ccccc2Cl)C(=O)C1)c1ccccc1 : Leishmania in macrophages: -0.578%; Toxoplasma: -6.275%
- CCN1C(=O)C2(CCCCC2)NC12CCSCC2 : Leishmania in macrophages: 30.83%; Toxoplasma: -10.59%
- Cc1cccc(-c2[nH]ncc2CNCC2CCN(CC(C)O)CC2)c1 (centres unmarked) : Leishmania in macrophages: 27.53%; Toxoplasma: 8.558%
- O=C(O)c1cc(S(=O)(=O)Nc2ccc(Cl)cc2)cc2c1OCCO2 : Leishmania in macrophages: 7.601%; Toxoplasma: -2.531%
- CC(C)c1nc2n(n1)CC(NCc1nnc(-c3ccco3)o1)CC2 (centres unmarked) : Leishmania in macrophages: 7.703%; Toxoplasma: 4.882%
- CN1CCOCC2(CCCN(C(=O)c3ccc(-n4cccc4)cc3)C2)C1.O=C(O)C(F)(F)F (centres unmarked) : Leishmania in macrophages: 15.91%; Toxoplasma: -9.118%
- CC(C)Nc1nc2c(cc1C(=O)NCC1CC1)CCN(CC1CC1)CC2.O=C(O)C(F)(F)F.O=C(O)C(F)(F)F : Leishmania in macrophages: -19.8%; Toxoplasma: 4.28%
- COc1ccc(-c2ccc(C(=O)N3CCOCC3CC(N)=O)o2)cc1 (centres unmarked) : Leishmania in macrophages: 7.375%; Toxoplasma: 0.1312%
- NC(=O)c1cccc(CCNCc2cccs2)c1 : Leishmania in macrophages: 15.57%; Toxoplasma: -8.523%
- CCCN(CCN(C)C)C(=O)Cc1cn2ccsc2n1 : Leishmania in macrophages: 3.247%; Toxoplasma: 4.432%
- CC(C)N1CCC(Cc2cc(-c3cccc(C(=O)O)c3)ncn2)C1 (centres unmarked) : Leishmania in macrophages: 1.918%; Toxoplasma: 2.883%
- OC(CNCCn1cccn1)COc1cccc(C(F)(F)F)c1 (centres unmarked) : Leishmania in macrophages: 45.01%; Toxoplasma: -5.493%
- Cc1nc2c(c(NCC(c3cccnc3)N3CCOCC3)n1)CCNC2 (centres unmarked) : Leishmania in macrophages: -38.04%; Toxoplasma: -12.41%
- O=C(O)CCCc1ccc2c(c1)CC(=O)N2 : Leishmania in macrophages: 32.79%; Toxoplasma: 0.3121%
- C[C@H](NC(=O)C1CC1)c1nc2cc(-c3ccc(F)cc3)ncn2n1 : Leishmania in macrophages: 17.87% and 15.11%; Toxoplasma: 18.85%
- N#Cc1ccc(Nc2nc3c(s2)C(=O)CN(CC2CC2)C3)cc1 : Leishmania in macrophages: 26.1% and 20.59%; Toxoplasma: 0.4838%
- CCC1CN(C(=O)c2ccc(O)c(C)c2)CCN1C(C)C (centres unmarked) : Leishmania in macrophages: 23.93%; Toxoplasma: 4.4%
- [H][C@@]12CS(=O)(=O)C[C@]1([H])N(C(=O)CCC(F)(F)F)CCN2Cc1ccncc1 : Leishmania in macrophages: 2.919%; Toxoplasma: -5.046%
- CC(C)CNC(=O)c1cccc(Oc2ccc3nncn3n2)c1 : Leishmania in macrophages: -3.627%; Toxoplasma: -2.243%
- CCc1nccn1-c1cccc(C2CCCN(C3CCCCC3)C2)n1 (centres unmarked) : Leishmania in macrophages: 10.95% and -7.112%; Toxoplasma: 7.9%
- O=c1[nH]c(-c2ccccn2)nc2c1CCN(Cc1cccc(O)c1)C2 : Leishmania in macrophages: -19.6%; Toxoplasma: -20.8%
- O=c1[nH]c(-c2ccc(F)c(F)c2)nc2c1CCNC2 : Leishmania in macrophages: 51.76%; Toxoplasma: -8.127%
- COCCN1CCC(C(=O)N(C)Cc2c[nH]c3ccc(C)cc23)C1 (centres unmarked) : Leishmania in macrophages: 16.29%; Toxoplasma: 12.16%
- COc1cccc(COCC(=O)N2CCCC(c3cc(C)[nH]n3)C2)c1 (centres unmarked) : Leishmania in macrophages: 26.52%; Toxoplasma: 6.376%
- [H][C@@]12COC[C@]1(COCC1CC1)CN(C(=O)C1=CCCC1)C2 : Leishmania in macrophages: -7.156%; Toxoplasma: 11.93%
- COCCNC(=O)NCCn1nc(C(F)(F)F)n(C)c1=O : Leishmania in macrophages: 8.325%; Toxoplasma: -12.62%
- CCc1ccc(C(C)NC(=O)c2ccc(CS(C)(=O)=O)o2)cc1 (centres unmarked) : Leishmania in macrophages: 35.97%; Toxoplasma: 0%
- Cc1ccc(-c2cc(C(=O)N3CCCC3c3cccnc3)[nH]n2)o1 (centres unmarked) : Leishmania in macrophages: 10.8%; Toxoplasma: -6.972%
- Cc1ccc(N(C)C2CCCN(C(=O)Nc3ccc(F)cc3F)C2)cc1 (centres unmarked) : Leishmania in macrophages: -17.67%; Toxoplasma: -6.162%
- CCc1nsc(NC2CC(=O)N(C(C)(C)C)C2)n1 (centres unmarked) : Leishmania in macrophages: 8.269%; Toxoplasma: -2.253%
- CCn1cc(S(=O)(=O)NCC(OC)c2cccc(Cl)c2)cn1 (centres unmarked) : Leishmania in macrophages: 9.293%; Toxoplasma: -15.49%
- [H][C@@]12OCCN(C(=O)C3CCOCC3)[C@@]1([H])CC[C@H]2OCC : Leishmania in macrophages: 16.1%; Toxoplasma: 6.561%
- Cc1ccc(C(=O)N2CCN(c3ccnc4ccsc34)CC2)o1 : Leishmania in macrophages: 28.57%; Toxoplasma: 7.287%
- O=C(c1cc(F)ccc1O)N1CCN(C2CCOCC2)CC1 : Leishmania in macrophages: -3.992%; Toxoplasma: -15.46%
- N#CCSCC(=O)NCC1CCCCC1 : Leishmania in macrophages: -21.56%; Toxoplasma: 19.96%
- [H][C@]12CC[C@]([H])(CN(Cc3ccc(Cl)cc3)C1)N(Cc1c(C)noc1C)C2=O : Leishmania in macrophages: 25.74%; Toxoplasma: -14.23%
- Cc1c(C(=O)NC(C)C(C)C)nnn1-c1cccc2c1CCN(C)C2 (centres unmarked) : Leishmania in macrophages: 34.07%; Toxoplasma: -0.1508%
- OCCn1nccc1C1CCN(CCOc2cccc(F)c2)CC1 : Leishmania in macrophages: 30.96%; Toxoplasma: -4.155%
- Cn1cc(N2CCN(c3ccc(C#N)cc3Br)CC2=O)cn1 : Leishmania in macrophages: -5.391%; Toxoplasma: 5.515%
- CC(Cn1ccnc1)NC(=O)Nc1ccccn1 (centres unmarked) : Leishmania in macrophages: -39.45%; Toxoplasma: -10.62%
- CC(NC(=O)NCCCn1cncn1)c1ccc(F)cc1 (centres unmarked) : Leishmania in macrophages: 9.464%; Toxoplasma: 23.32%
- O=C(O)c1c(Cl)ncn1-c1ccccc1 : Leishmania in macrophages: 42.23%; Toxoplasma: 10.33%
- Cn1nc2c(cc1=O)CN(Cc1nc(-c3cccnc3)no1)CC2 : Leishmania in macrophages: 29.42%; Toxoplasma: -4.206%
- CCS(=O)(=O)N1Cc2ncn(CC3CC3)c2C(COCC2CC2)C1.O=C(O)C(F)(F)F (centres unmarked) : Leishmania in macrophages: 3.206%; Toxoplasma: 0.8912%

Some entries from above, unchanged:

structure,Leishmania in macrophages,Toxoplasma
Cc1ccc(C(=O)N2CCN(c3ccnc4ccsc34)CC2)o1,28.57,7.287
C[C@H](NC(=O)C1CC1)c1nc2cc(-c3ccc(F)cc3)ncn2n1,17.87 and 15.11,18.85
CCc1nccn1-c1cccc(C2CCCN(C3CCCCC3)C2)n1 (centres unmarked),10.95 and -7.112,7.9
CC(C)Nc1nc2c(cc1C(=O)NCC1CC1)CCN(CC1CC1)CC2.O=C(O)C(F)(F)F.O=C(O)C(F)(F)F,-19.8,4.28